Numbering of substitutions follows the chain as printed. Results are given in words; binding and its absence hold for the method and conditions named. Binding seen in cells or lysates may run through a third protein. Some binding calls cover weakened binding; strength is not graded here. Values belong to the molecule of their own block, whether it stands above or below them.
Experiments:
[1] = target: T1, N-SMase2 overexpressed in HEK293 cells (pRC/N-SMase2) (UniProt Q9JJY3); assay: proximity ligation; fixed, permeabilized HEK293 cells transfected with N-SMase2; mouse anti-N-SMase2 and goat anti-Hsp60, Duolink In Situ kit, confocal microscopy
T1 sequence: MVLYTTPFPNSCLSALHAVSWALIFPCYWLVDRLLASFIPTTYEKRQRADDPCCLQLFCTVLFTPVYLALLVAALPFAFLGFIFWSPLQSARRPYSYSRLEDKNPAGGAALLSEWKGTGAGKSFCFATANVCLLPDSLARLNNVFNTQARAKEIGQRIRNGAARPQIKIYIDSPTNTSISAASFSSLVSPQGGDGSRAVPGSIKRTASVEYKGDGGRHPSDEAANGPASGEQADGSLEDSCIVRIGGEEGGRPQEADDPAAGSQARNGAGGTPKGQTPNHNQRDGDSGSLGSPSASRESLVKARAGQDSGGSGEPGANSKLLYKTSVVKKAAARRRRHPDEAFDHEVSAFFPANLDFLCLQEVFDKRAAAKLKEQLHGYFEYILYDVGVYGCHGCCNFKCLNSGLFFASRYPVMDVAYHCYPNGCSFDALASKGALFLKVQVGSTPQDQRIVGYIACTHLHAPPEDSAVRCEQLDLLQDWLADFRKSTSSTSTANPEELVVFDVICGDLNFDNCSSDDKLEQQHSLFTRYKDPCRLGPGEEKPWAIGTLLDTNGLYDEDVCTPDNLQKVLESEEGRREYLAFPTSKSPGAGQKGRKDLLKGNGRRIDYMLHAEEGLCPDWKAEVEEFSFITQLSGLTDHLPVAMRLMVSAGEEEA

By UniProt entry, the sequences of proteins in these tests, tags left out. Residues count along the entry.
UniProt P10809, residues 27-573: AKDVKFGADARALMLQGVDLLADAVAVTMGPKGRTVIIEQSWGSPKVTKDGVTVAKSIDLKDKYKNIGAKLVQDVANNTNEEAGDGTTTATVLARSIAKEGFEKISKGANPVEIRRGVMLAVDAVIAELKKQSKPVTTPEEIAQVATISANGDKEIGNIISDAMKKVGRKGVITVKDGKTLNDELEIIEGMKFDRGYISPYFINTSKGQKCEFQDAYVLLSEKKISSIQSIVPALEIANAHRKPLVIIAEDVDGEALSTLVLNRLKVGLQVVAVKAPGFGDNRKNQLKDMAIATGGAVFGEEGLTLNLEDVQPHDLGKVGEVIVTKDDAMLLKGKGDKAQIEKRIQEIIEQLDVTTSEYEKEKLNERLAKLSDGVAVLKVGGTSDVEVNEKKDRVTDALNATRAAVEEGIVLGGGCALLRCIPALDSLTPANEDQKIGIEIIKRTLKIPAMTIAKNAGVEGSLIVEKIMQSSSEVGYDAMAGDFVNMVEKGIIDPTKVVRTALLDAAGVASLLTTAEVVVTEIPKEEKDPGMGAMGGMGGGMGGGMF
UniProt P61604: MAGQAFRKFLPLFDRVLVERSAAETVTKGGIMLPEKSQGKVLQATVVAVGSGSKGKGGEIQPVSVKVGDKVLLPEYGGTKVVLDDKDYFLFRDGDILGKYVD
UniProt P63039, residues 27-573: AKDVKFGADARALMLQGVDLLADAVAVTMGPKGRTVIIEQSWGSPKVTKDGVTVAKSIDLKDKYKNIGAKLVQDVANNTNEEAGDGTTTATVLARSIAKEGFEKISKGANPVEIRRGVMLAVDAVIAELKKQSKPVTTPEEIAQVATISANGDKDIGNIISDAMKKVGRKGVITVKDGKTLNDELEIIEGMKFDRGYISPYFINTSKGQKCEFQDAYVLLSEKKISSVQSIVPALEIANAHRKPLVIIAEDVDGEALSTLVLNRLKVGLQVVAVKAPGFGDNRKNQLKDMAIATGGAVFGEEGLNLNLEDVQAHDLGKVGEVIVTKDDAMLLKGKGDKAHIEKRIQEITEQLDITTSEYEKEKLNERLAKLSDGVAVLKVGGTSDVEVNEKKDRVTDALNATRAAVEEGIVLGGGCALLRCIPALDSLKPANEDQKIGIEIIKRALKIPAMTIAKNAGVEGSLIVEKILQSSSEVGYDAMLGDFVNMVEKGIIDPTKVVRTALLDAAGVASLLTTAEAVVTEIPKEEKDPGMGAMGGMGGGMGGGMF

[2] = target: T1, N-SMase2 overexpressed in HEK293 cells (pRC/N-SMase2); assay: cross-linking + co-IP; HEK293 cells transfected with N-SMase2, treated with 2 mM DSP on ice for 1 h, solubilized in 25 mM Tris-HCl pH 7.5, 2 mM EDTA, 0.1% Triton X-100, 137 mM NaCl; immunoprecipitates immunoblotted
[3] = target: Hsp60, endogenous in HEK293 cells (human (endogenous in HEK293)) (UniProt P10809); assay: co-IP; lysate of HEK293 cells transfected with N-SMase2, no crosslinker; antibodies against Hsp60 and N-SMase2; N-SMase activity of the immunoprecipitates (data not shown)
[4] = target: Hsp10, endogenous in HEK293 cells (human (endogenous in HEK293)) (UniProt P61604); assay: cross-linking + co-IP; HEK293 cells transfected with N-SMase2, treated with 2 mM DSP on ice for 1 h, solubilized in 25 mM Tris-HCl pH 7.5, 2 mM EDTA, 0.1% Triton X-100, 137 mM NaCl; immunoprecipitates immunoblotted
[5] = target: Hsp60, rat brain synaptosomes (rat (endogenous in rat brain)) (UniProt P63039); assay: co-IP; rat brain synaptosome fraction; anti-Hsp60 and anti-N-SMase2 antibodies; N-SMase activity of the immunoprecipitates
[6] = target: Hsp60, endogenous in PC12 cells (rat (endogenous in PC12)) (UniProt P63039); assay: co-IP; PC12 cell lysate, endogenous proteins, with or without N-SMase2 siRNA; antibodies against Hsp60 or N-SMase2; N-SMase activity of the pellets and immunoblot

binding [1]: binds
binding [2]: binds
Molecule: Hsp60, endogenous in HEK293 cells (from UniProt P10809 27-573)

binding [3]: binds
binding [4]: no binding
B1: N-SMase2 overexpressed in HEK293 cells (pRC/N-SMase2) (enzyme, UniProt Q9JJY3 1-655)
chain: T1 sequence

binding [5]: binds
B2: N-SMase2, rat brain synaptosomes (enzyme, UniProt O35049 1-655)
chain: T1 sequence with L35V, C54Y, N104S, G193S, S196A, P253A, A261P, A317S, V469I, T552I

binding [6]: binds
B3: N-SMase2, endogenous in PC12 cells (enzyme, UniProt O35049 1-655)
chain: T1 sequence with L35V, C54Y, N104S, G193S, S196A, P253A, A261P, A317S, V469I, T552I
